# Assay results published in patent US20100203587A1, “USE OF DNA GYRASE INHIBITORS FOR IN VITRO POLYPEPTIDE SYNTHESIS REACTIONS” (priority 2009, published 2010).
# Where a name gives a salt, the structure may show the parent alone.
# Test system: bacterial growth from lysate
# Assay: Inhibition of bacterial growth from lysate in LB medium (Example 6)
# Format: cell-based
# Conditions: 37° C., 16 hours
SMILES,OD595 (cell density) (1 μg/ml),OD595 (cell density) (10 μg/ml),OD595 (cell density) (0.1 μg/ml),OD595 (cell density) (0.5 μg/ml),"OD595 (cell density) (1 μg/ml, listed as Cipro.)",OD595 (cell density) (5 μg/ml),"OD595 (cell density) (10 μg/ml, listed as Cipro.)"
"O=C(O)c1cn(C2CC2)c2cc(N3CCNCC3)c(F)cc2c1=O [Cipro./HCl, Ciprofloxacin]",0.02,0.03,–,–,–,–,–
O=C(O)c1cn(C2CC2)c2cc(N3CCNCC3)c(F)cc2c1=O [Ciprofloxacin],–,–,0.58,0.08,0.07,0.02,0.04
